The list shows only some results of the screen, not a fair sample: its compounds were picked by chemical class. Other doses and runs of a compound may be missing. T/C is the treated group as % of the vehicle group. Some entries give survivors of the animals treated and no T/C: the source holds a T/C of zero for them, seemingly a mark for toxic or unscored doses. Some doses without a T/C left all or most animals alive at the check, yet need not have been tolerated: survival well below the control is almost never listed, so the zero probably covers shortened survival too. Counts of survivors are from the toxicity check (mostly the fifth day) where no day follows; animals may have died later. Schedule codes are those of the source, taken here to give the interval after Q, in days (D) or hours (H), and the number of doses after X. Some structures stand for samples that the source files as different forms (salt, stereo form or complex); doses refer to the form tested. For survival time, the PubChem record calls one and a half times the control and up active, and a quarter to a half above the control has no call in these data; cut-offs in other NCI protocols can differ. Some entries hold several experiments; the results are listed from low to high. Some schedule codes hold Z or #, which are not explained here. Some T/C values are marked as having no survivor count here; that says nothing about deaths at the dose. Some T/C values are followed by the survivors on the day toxicity was checked, most often the fifth; without a count or a note in brackets, all were alive then.
System: L1210 leukemia ip in BDF1 mice, survival T/C
Test: NCI In Vivo Anticancer Drug Screen. Data for tumor model L1210 Leukemia (intraperitoneal) in B6D2F1 (BDF1) mice
Conditions: T/C endpoint: mean survival time, higher T/C = longer survival
[1] = dose: 100.0 mg/kg/injection, schedule: Q01DX009 (ip), vehicle: Klucel (hydroxypropylcellulose) (HPC)
[2] = dose: 100.0 mg/kg/injection, schedule: Q04DX003 (ip), vehicle: Klucel (hydroxypropylcellulose) (HPC)
[3] = dose: 200.0 mg/kg/injection, schedule: Q04DX003 (ip), vehicle: Klucel (hydroxypropylcellulose) (HPC)
[4] = dose: 400.0 mg/kg/injection, schedule: Q04DX003 (ip), vehicle: Klucel (hydroxypropylcellulose) (HPC)
[5] = dose: 50.0 mg/kg/injection, schedule: Q04DX003 (ip), vehicle: saline
[6] = dose: 100.0 mg/kg/injection, schedule: Q04DX003 (ip), vehicle: saline
[7] = dose: 100.0 mg/kg/injection, schedule: Q04DX002 (ip), vehicle: Klucel (hydroxypropylcellulose) (HPC)
[8] = dose: 200.0 mg/kg/injection, schedule: Q04DX002 (ip), vehicle: Klucel (hydroxypropylcellulose) (HPC)
[9] = dose: 400.0 mg/kg/injection, schedule: Q04DX002 (ip), vehicle: Klucel (hydroxypropylcellulose) (HPC)
[10] = dose: 50.0 mg/kg/injection, schedule: Q01DX009 (ip), vehicle: saline
[11] = dose: 100.0 mg/kg/injection, schedule: Q01DX009 (ip), vehicle: saline
[12] = dose: 200.0 mg/kg/injection, schedule: Q01DX009 (ip), vehicle: saline

With `BrC1C[N-]C2CCCCC2C1.[C-]#N.[Cu+2]` (stereo not given) the T/C (dose: 25.0 mg/kg/injection, schedule: Q01DX009 (ip), vehicle: Klucel (hydroxypropylcellulose) (HPC)) was 92 % of control [survivor count not shown], the T/C (dose: 50.0 mg/kg/injection, schedule: Q01DX009 (ip), vehicle: Klucel (hydroxypropylcellulose) (HPC)) was 90 % of control [survivor count not shown] and the T/C [1] was 94 % of control [survivor count not shown]. The T/C [2] was 96 % of control [survivor count not shown], the T/C [3] was 93 % of control [survivor count not shown] and the T/C [4] was 95 % of control [survivor count not shown].

`OOC1(OOC2(OO)CCCCCC2)CCCCCC1` was tested, and the T/C (dose: 50.0 mg/kg/injection, schedule: Q01DX009 (ip), vehicle: saline with Tween-80) was 104 % of control [survivor count not shown] and the T/C (dose: 100.0 mg/kg/injection, schedule: Q01DX009 (ip), vehicle: saline with Tween-80) was 104 % of control [survivor count not shown].

In the case of `CCOP(=O)(Nc1ccccc1)OCC`, the T/C [2] is reported as 97 % of control, the T/C [3] is reported as 97 % of control and the T/C [4] is reported as 95 % of control.

`C[N+](CCCl)(CCCl)Cc1ccccc1` was tested, and the T/C (dose: 2.5 mg/kg/injection, schedule: Q01DX Z (ip), vehicle: saline) was 97 % of control, the T/C (dose: 5.0 mg/kg/injection, schedule: Q01DX Z (ip), vehicle: saline) was 94 % of control and the T/C (dose: 10.0 mg/kg/injection, schedule: Q01DX Z (ip), vehicle: saline) was 95 and 108 % of control. For the same molecule, the T/C (dose: 20.0 mg/kg/injection, schedule: Q01DX Z (ip), vehicle: saline) was 104 % of control, the T/C (dose: 25.0 mg/kg/injection, schedule: Q01DX009 (ip), vehicle: saline with Tween-80) was 110 % of control and the T/C (dose: 40.0 mg/kg/injection, schedule: Q01DX Z (ip), vehicle: saline) was 101 % of control. The T/C [5] was 104 % of control and the T/C [6] was 111 % of control.

For `ClP1(Cl)=NP(Cl)(Cl)=NP(Cl)(Oc2ccccc2)=N1` (stereo not given), the T/C (dose: 6.25 mg/kg/injection, schedule: Q04DX003 (ip), vehicle: saline with Tween-80) was 98 % of control, the T/C (dose: 12.5 mg/kg/injection, schedule: Q04DX003 (ip), vehicle: saline with Tween-80) was 93 % of control and the T/C (dose: 25.0 mg/kg/injection, schedule: Q04DX003 (ip), vehicle: saline with Tween-80) was 98 % of control.

With `NC(=O)c1cc(Cl)ccc1N=NN(CCCl)CCCl` the T/C (dose: 75.0 mg/kg/injection, schedule: Q04DX003 (ip), vehicle: saline with Tween-80) was 101 % of control, the T/C (dose: 150.0 mg/kg/injection, schedule: Q04DX003 (ip), vehicle: saline with Tween-80) was 101 % of control and the T/C (dose: 300.0 mg/kg/injection, schedule: Q04DX003 (ip), vehicle: saline with Tween-80) was 105 % of control.

`[N-]=[N+]=NCC(O)CN=[N+]=[N-]` (stereo not given) was tested, and the T/C (dose: 9.38 mg/kg/injection, schedule: Q01DX009 (ip), vehicle: saline with Tween-80) was 97 % of control, the T/C (dose: 18.75 mg/kg/injection, schedule: Q01DX009 (ip), vehicle: saline with Tween-80) was 109 % of control and the survivor count (dose: 37.5 mg/kg/injection, schedule: Q01DX009 (ip), vehicle: saline with Tween-80) was 5 of 6.

In the case of `Cc1cc(/C=N/N(C)C)ccc1N(CCCl)CCCl`, the T/C (dose: 25.0 mg/kg/injection, schedule: Q04DX002 (ip), vehicle: Klucel (hydroxypropylcellulose) (HPC)) is reported as 120 % of control, the T/C (dose: 50.0 mg/kg/injection, schedule: Q04DX002 (ip), vehicle: Klucel (hydroxypropylcellulose) (HPC)) is reported as 104 % of control and the T/C [7] is reported as 97 and 101 % of control. The survivor count [8] was 1 of 3 and the survivor count [9] was 0 of 3.

`N#CN/C(N)=N/P(=O)(Oc1ccccc1)Oc1ccccc1` was tested, and the T/C [7] was 94 % of control, the T/C [8] was 94 % of control and the T/C [9] was 94 % of control.

With `O=P1(N(CCCl)CCCl)OCCCN1CCCl` (stereo not given) the T/C (dose: 12.5 mg/kg/injection, schedule: Q01DX001 (ip), vehicle: saline) was 106 % of control, the T/C (dose: 25.0 mg/kg/injection, schedule: Q01DX001 (ip), vehicle: saline) was 120 % of control and the T/C (dose: 50.0 mg/kg/injection, schedule: Q01DX001 (ip), vehicle: saline) was 125 % of control. The T/C (dose: 100.0 mg/kg/injection, schedule: Q01DX001 (ip), vehicle: saline) was 194 % of control and the T/C (dose: 200.0 mg/kg/injection, schedule: Q01DX001 (ip), vehicle: saline) was 212 % of control.

In the case of `O=[N+]([O-])c1ccc(SSc2ccc([N+](=O)[O-])cc2[N+](=O)[O-])c([N+](=O)[O-])c1`, the T/C (dose: 50.0 mg/kg/injection, schedule: Q01DX001 (ip), vehicle: carboxymethylcellulose (CMC)) is reported as 98 % of control, the survivor count (dose: 100.0 mg/kg/injection, schedule: Q01DX001 (ip), vehicle: carboxymethylcellulose (CMC)) is reported as 4 of 4 and the T/C (dose: 100.0 mg/kg/injection, schedule: Q04DX003 (ip), vehicle: saline with Tween-80) is reported as 95 % of control [5 of 6 alive]. For the same molecule, the survivor count (dose: 200.0 mg/kg/injection, schedule: Q01DX001 (ip), vehicle: carboxymethylcellulose (CMC)) was 4 of 4, the T/C (dose: 200.0 mg/kg/injection, schedule: Q04DX003 (ip), vehicle: saline with Tween-80) was 94 % of control and the T/C (dose: 400.0 mg/kg/injection, schedule: Q01DX001 (ip), vehicle: carboxymethylcellulose (CMC)) was 95 % of control. The T/C (dose: 400.0 mg/kg/injection, schedule: Q04DX003 (ip), vehicle: saline with Tween-80) was 94 % of control.

With `CCN(CCCl)CC1OC(OC)C2OC(C)(C)OC12` (stereo not given) the T/C (dose: 6.25 mg/kg/injection, schedule: Q01DX009 (ip), vehicle: saline) was 118 % of control, the T/C (dose: 8.2 mg/kg/injection, schedule: Q01DX009 (ip), vehicle: saline) was 123 % of control and the T/C (dose: 12.5 mg/kg/injection, schedule: Q01DX009 (ip), vehicle: saline) was 120 [5 of 6 alive] and 126 % of control. The T/C (dose: 18.0 mg/kg/injection, schedule: Q01DX009 (ip), vehicle: saline) was 117 % of control, the T/C (dose: 25.0 mg/kg/injection, schedule: Q01DX009 (ip), vehicle: saline) was 123 % of control and the survivor count [10] was 1 of 6. For the same molecule, the survivor count [11] was 0 of 6, the survivor count [12] was 0 of 6 and the survivor count (dose: 400.0 mg/kg/injection, schedule: Q01DX009 (ip), vehicle: saline) was 0 of 6.

`NC1=NCCN1[N+](=O)[O-]` was tested, and the T/C (dose: 25.0 mg/kg/injection, schedule: Q04DX002 (ip), vehicle: saline) was 104 % of control, the T/C [10] was 116 % of control and the T/C (dose: 50.0 mg/kg/injection, schedule: Q04DX002 (ip), vehicle: saline) was 104 % of control. The T/C [5] was 101 % of control, the T/C [11] was 116 % of control and the T/C (dose: 100.0 mg/kg/injection, schedule: Q04DX002 (ip), vehicle: saline) was 86 % of control. For the same molecule, the T/C [2] was 97 % of control, the T/C [6] was 98 % of control [4 of 6 alive] and the T/C [12] was 111 % of control [5 of 6 alive]. For the same molecule, the T/C [3] was 94 % of control [5 of 6 alive], the survivor count (dose: 200.0 mg/kg/injection, schedule: Q04DX003 (ip), vehicle: saline) was 2 of 6 and the survivor count [4] was 1 of 6.

`CCc1c(C)c([N+](=O)[O-])c(C)c([N+](=O)[O-])c1[N+](=O)[O-]` was tested, and the T/C [1] was 93 % of control [survivor count not shown], the T/C [2] was 98 % of control [survivor count not shown] and the T/C (dose: 200.0 mg/kg/injection, schedule: Q01DX009 (ip), vehicle: Klucel (hydroxypropylcellulose) (HPC)) was 98 % of control [survivor count not shown]. The T/C [3] was 93 % of control [survivor count not shown], the T/C (dose: 400.0 mg/kg/injection, schedule: Q01DX009 (ip), vehicle: Klucel (hydroxypropylcellulose) (HPC)) was 104 % of control [survivor count not shown] and the T/C [4] was 100 % of control [survivor count not shown].

— PubChem BioAssay AID248 (DTP/NCI, 2004)
